Assay results: article doi:10.1101/2020.09.01.276469
No constants are given. Whether binding was seen depends on the method and setting. Binding can be weak; no strength is given.

Assays:
[1] = target: T1, C-terminal half of TPX2 (amino acids 319-716) (Xenopus laevis) (UniProt Q6NUF4); assay: BLI
T1 sequence: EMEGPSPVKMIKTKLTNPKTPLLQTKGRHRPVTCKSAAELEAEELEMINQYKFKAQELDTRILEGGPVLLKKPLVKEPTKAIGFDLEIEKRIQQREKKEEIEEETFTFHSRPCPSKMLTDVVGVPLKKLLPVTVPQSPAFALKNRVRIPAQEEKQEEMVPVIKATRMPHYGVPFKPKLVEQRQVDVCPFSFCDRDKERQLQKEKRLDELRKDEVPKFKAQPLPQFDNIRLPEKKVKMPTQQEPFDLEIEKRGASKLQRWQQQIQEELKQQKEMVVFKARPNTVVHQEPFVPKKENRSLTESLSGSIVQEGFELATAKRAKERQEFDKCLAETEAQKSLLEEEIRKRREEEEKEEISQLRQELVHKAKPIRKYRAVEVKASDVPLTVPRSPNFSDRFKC

[2] = target: T2, TPX2 amino acids 1-99 (Xenopus laevis) (UniProt Q6NUF4); assay: BLI
T2 sequence: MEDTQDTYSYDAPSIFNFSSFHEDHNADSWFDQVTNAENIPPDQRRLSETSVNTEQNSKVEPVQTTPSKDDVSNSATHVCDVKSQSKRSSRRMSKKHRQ

- binding [1]: binds weakly
- binding [2]: binds weakly
Substance: importin-αΔIBB (importin-α without the importin-β binding domain) (Xenopus laevis) (domain or fragment)
